Assay results taken from article PMC11446711.
Results are given in words; binding and its absence hold for the method and conditions named. In cells and extracts the contact can be indirect. Some results given as binding are weak or reduced against the parent protein; the word gives no strength.

Chains of the proteins cited; added tags and fusions are not shown.
UniProt Q08775: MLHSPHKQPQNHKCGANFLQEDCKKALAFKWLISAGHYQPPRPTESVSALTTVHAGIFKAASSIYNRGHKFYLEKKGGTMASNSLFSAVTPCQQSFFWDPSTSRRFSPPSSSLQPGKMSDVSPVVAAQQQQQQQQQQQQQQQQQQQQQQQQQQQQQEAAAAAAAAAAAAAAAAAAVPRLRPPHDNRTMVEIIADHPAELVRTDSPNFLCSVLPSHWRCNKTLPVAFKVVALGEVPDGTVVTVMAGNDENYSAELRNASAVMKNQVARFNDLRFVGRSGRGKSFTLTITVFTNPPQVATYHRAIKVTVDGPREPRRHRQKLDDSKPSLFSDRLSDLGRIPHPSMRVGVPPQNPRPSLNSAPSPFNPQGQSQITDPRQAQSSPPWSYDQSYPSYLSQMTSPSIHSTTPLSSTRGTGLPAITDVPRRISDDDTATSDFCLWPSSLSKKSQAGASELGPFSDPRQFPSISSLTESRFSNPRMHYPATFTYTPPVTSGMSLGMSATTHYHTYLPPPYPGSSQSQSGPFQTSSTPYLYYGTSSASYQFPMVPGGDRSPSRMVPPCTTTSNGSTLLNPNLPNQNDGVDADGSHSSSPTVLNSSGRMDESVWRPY
UniProt Q3UIR3: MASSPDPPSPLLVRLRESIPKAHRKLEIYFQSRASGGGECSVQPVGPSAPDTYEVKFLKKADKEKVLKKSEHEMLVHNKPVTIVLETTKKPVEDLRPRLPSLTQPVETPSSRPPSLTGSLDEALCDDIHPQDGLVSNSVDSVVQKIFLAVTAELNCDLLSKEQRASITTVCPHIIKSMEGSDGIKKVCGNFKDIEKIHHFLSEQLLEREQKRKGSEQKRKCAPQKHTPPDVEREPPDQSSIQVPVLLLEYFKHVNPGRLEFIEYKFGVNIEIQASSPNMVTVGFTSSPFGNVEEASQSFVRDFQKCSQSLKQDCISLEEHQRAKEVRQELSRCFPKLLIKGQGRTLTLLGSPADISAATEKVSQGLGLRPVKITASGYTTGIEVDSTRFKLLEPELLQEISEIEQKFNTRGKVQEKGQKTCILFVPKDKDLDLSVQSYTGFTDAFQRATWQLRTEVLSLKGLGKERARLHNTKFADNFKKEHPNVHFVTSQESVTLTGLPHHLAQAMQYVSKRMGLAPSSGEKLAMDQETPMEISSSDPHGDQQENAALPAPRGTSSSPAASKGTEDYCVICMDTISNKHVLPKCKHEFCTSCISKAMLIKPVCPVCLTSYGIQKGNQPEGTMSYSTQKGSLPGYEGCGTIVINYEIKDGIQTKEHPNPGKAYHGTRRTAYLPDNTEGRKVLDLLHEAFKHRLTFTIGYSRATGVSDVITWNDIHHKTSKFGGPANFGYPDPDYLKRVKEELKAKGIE

Tests used:
[1] = target: Flag-Runx2 (RUNX family transcription factor 2) in NIH/3T3 cells (UniProt Q08775); experiment: co-IP; NIH/3T3 cells transfected with Flag-Runx2 for 24 h, then 10 ng/mL TGF-β1 for 24 h and 600 mg/L L-carnitine for 15 min; enrichment for Flag by immunoprecipitation; western blot for Runx2 and DTX3L
[2] = target: Flag-Runx2 (RUNX family transcription factor 2) (UniProt Q08775); experiment: co-IP; HEK 293 cells co-transfected with Flag-Runx2 and GFP-DTX3L plasmids for 24 h; enrichment for Flag or GFP on magnetic beads, lysate incubated overnight at 4°C, washed with TBS; western blot
[3] = target: Flag-Runx2 (RUNX family transcription factor 2) (UniProt Q08775); experiment: proximity ligation; Duolink assay in fixed HEK 293 cells transfected with GFP-DTX3L and Flag-Runx2; anti-Flag rabbit and anti-GFP mouse antibodies, PLUS and MINUS PLA probes

| binding [1] | binding [2] | binding [3] | Substance |
| --- | --- | --- | --- |
| binds | – | – | DTX3L (deltex E3 ubiquitin ligase 3L) in NIH/3T3 cells (from UniProt Q3UIR3 1-748) |
| – | binds | binds | GFP-DTX3L (deltex E3 ubiquitin ligase 3L) (from UniProt Q3UIR3 1-748) |
